Hit rate of the full screen: of about 300,000 compounds, about 5,400 (1.8%) were called active. The inconclusive results got no clear call from the source; some entries with a clear call stand among them for comparison. Calls come from the whole dose curve; tested in HEK293 cells. Where the call is inconclusive, the potency comes from a doubtful curve fit.
assay: qHTS for inhibitors of binding or entry into cells for Marburg Virus; settings: Marburg virus pseudotyped entry inhibition, cell reporter; activity change, negative = inhibition: at 37.8 µM (top of the series) unless noted
% is set by controls: 0 for no effect and ±100 for the full control effect; potency is the fitted concentration of half-maximal effect.

Structure (SMILES) | Potency | activity change, negative = inhibition
Cc1cc(C)cc(NS(=O)(=O)c2ccc(F)cc2)c1 | inconclusive: 35.5 µM [inhibitor, partial curve, poor fit] | –
N[C@H](Cc1cccc(-c2ccccc2CP(=O)(O)O)c1)C(=O)O | – | inactive: 6.38%
CCCCCCCn1c(=O)c(C(=O)OC)c(N)c2ccccc21 | inconclusive: 25.1 µM [inhibitor, partial curve, poor fit] | –
Cc1ccc(S(=O)(=O)NCCC(=O)OCc2ccc([N+](=O)[O-])cc2)cc1C | inconclusive: 22.4 µM [activator, single point] | –
CC1=C(C(=O)Nc2ccccc2)C(c2cccs2)n2nc(SCc3ccccc3)nc2N1 (stereo not drawn) | – | inactive: 5.95% [at 46.1 µM]
Cc1cc(N2CCN(c3nc(-c4ccc([N+](=O)[O-])cc4)cs3)CC2)c2ccccc2n1 | active: 11.2 µM | –
O=C(CCNC(=O)c1ccc([N+](=O)[O-])cc1)Nc1ccc(S(=O)(=O)N2CCOCC2)cc1 | – | inactive: 13.6%
CCCN(CCC)c1ncnc2c1cnn2-c1ccc(OC)cc1 | inconclusive: 29.1 µM [inhibitor, single point] | –
CN(C)CCn1c2c(c(SCC(=O)Nc3ccccc3C(F)(F)F)nc1=O)CCCC2 | – | inactive: 28.8%
Clc1ccc(-c2cc(CN3CCOCC3)no2)cc1 | inconclusive: 31.6 µM [inhibitor, single point] | –
Cc1cc(C)c(NS(=O)(=O)c2ccc3c(c2)NC(=O)CC(=O)N3)c(C)c1 | inconclusive: 0.112 µM [activator, full curve, poor fit] | –
COc1ccc(C(C#N)=C2C=CC(=NO)C(C)=C2Cl)cc1 | inconclusive: 35.5 µM [inhibitor, single point] | –
Cc1ccc(-n2c(C)nnc2SCC(=O)N2CCc3ccccc3C2)cc1 | inconclusive: 1.26 µM [activator, single point] | –
COc1ccccc1NS(=O)(=O)c1cc(NC(=O)c2ccc(Cl)nc2)ccc1Cl | active: 8.91 µM | –
Cc1ccc(C)c(Cn2cnc3ccccc3c2=O)c1 | – | inactive: -11.6% [at 46.1 µM]
O=C(c1ccccc1)N1CCN(C2c3cccc4cccc(c34)C2NS(=O)(=O)c2ccccc2)CC1 (stereo not drawn) | inconclusive: 29.1 µM [inhibitor, single point] | –
COc1ccc(OC)c(CCNC(=O)CN2C(=O)COc3ccc(S(=O)(=O)N4CCCCCC4)cc32)c1 | inconclusive: 8.91 µM [inhibitor, partial curve, poor fit] | –
COc1cccc(N=c2oc3cc(O)ccc3cc2C(=O)NCC2CCCO2)c1 (stereo not drawn) | inconclusive: 35.5 µM [inhibitor, single point] | –
O=C(N/N=C/C=C/c1ccco1)c1cnccn1 | – | inactive: 2.07% [at 46.1 µM]
Cc1[nH]c2ccccc2c1/C=C(\C#N)C(=O)NC(C)c1ccccc1 (stereo not drawn) | – | inactive: -22.6%
COC(=O)c1cc(OC)c(OC)cc1NC(=O)c1ccc2c(c1)CCN2S(=O)(=O)c1ccccc1 | inconclusive: 11.2 µM [activator, single point] | –
CCOC(=O)CNc1ccc(C(=O)OCC)cc1[N+](=O)[O-] | – | inactive: 1.05%
O=C1N(Cc2cccnc2)C[C@@H]2C[C@@H](c3ccccc3C#Cc3ccccc3)N3CCC[C@@]123 | inconclusive: 17.8 µM [inhibitor, partial curve, poor fit] | –

Structure (SMILES) | Potency | activity change, negative = inhibition
COc1ccc(-c2cc(=O)c3cc(OC)ccc3[nH]2)cc1 | – | inactive: -14.3%
O=C(NCc1ccccn1)c1nn(-c2ccccc2F)nc1CO | – | inactive: 3.11% [at 46.1 µM]
CCOc1ccc(N2C(=O)CC(N(CCc3ccc(OC)cc3)C(=O)c3cccc(F)c3)C2=O)cc1 (stereo not drawn) | inconclusive: 2.82 µM [inhibitor, partial curve] | –
CC(C)(C)NC(=O)COC(=O)c1ccccc1OCC(=O)Nc1ccc(Br)cc1 | inconclusive: 35.5 µM [inhibitor, single point] | –
CN1CCN(S(=O)(=O)c2ccc(Cl)nc2)CC1 | inconclusive: 1.26 µM [activator, single point] | –
CC1CCN(C(=S)NC(=O)C2CCCCC2)CC1 | inconclusive: 4.47 µM [activator, single point] | –
Cc1oc(-c2ccc(Cl)cc2)nc1CN1CCCC(C(=O)NCc2ccco2)C1 (stereo not drawn) | inconclusive: 23.1 µM [inhibitor, partial curve, poor fit] | –
O=C(O)C1CN(CCCP(=O)(O)O)CCN1 (stereo not drawn) | inconclusive: 2.06 µM [activator, partial curve, poor fit] | –
CCOC(=O)N1CCC(NC(=O)c2ccc3c(c2)N(Cc2ccc(Cl)cc2)C(=O)c2ccccc2S3=O)CC1 (stereo not drawn) | inconclusive: 7.08 µM [inhibitor, full curve, poor fit] | –
Cc1ccc(C(=O)NCCc2nnc3ccc(SCC(=O)Nc4ccccc4C)nn23)cc1 | – | inactive: 28.6%
COc1ccccc1OCCn1cc(/C=C(\C#N)C(=O)NCc2cccs2)c2ccccc21 | – | inactive: -27.4%
C[C@@H]1C[C@](C)(C(=O)c2ccco2)C=C1c1ccco1 | – | inactive: 5.54% [at 14.2 µM]
CCc1cc2c(=O)n(Cc3ccco3)c(SCC(=O)N3CCCc4ccccc43)nc2s1 | inconclusive: 23.1 µM [inhibitor, single point] | –
CCCCN=C(C)c1c(O)c2ccccc2oc1=O | inconclusive: 6.31 µM [activator, partial curve] | –
COc1cc(C(=O)Nc2ccc(S(=O)(=O)N3CCc4ccccc43)cc2)cc(OC)c1OC | active: 11.6 µM | –
CN(c1ccccc1)S(=O)(=O)c1ccc(Cl)c(C(=O)NCc2ccco2)c1 | inconclusive: 3.16 µM [activator, single point] | –
O=C(/C=C/c1ccnc2ccccc12)c1cccs1 | active: 3.16 µM | –
CCOC(=O)c1c(Nc2cccc(C)c2)nnc(-c2ccccc2)c1-c1ccccc1 | – | inactive: -21.4% [at 46.1 µM]
CC(C)=CC(=O)Nc1nnc(-c2cccnc2)s1 | – | inactive: -3.72% [at 46.1 µM]
CC(NC(=O)C(C)N1c2cccc3cccc(c23)S1(=O)=O)c1ccccc1 (stereo not drawn) | inconclusive: 0.651 µM [inhibitor, full curve, poor fit] | –
CC(C)(C)c1ccc(C(=O)NNC(=S)NCc2ccco2)cc1 | inconclusive: 6.31 µM [inhibitor, partial curve, poor fit] | –
COc1ccc(S(=O)(=O)N(CC(=O)NCc2ccco2)C2CCCCC2)cc1OC | inconclusive: 3.26 µM [inhibitor, full curve] | –
O=C(N[C@@H](Cc1ccccc1)C(=O)O)c1cccnc1 | – | inactive: 2.73%

Structure (SMILES) | Potency | activity change, negative = inhibition
COC(=O)N/N=C/c1cc(Cl)cc(Cl)c1OCc1ccc(F)cc1 | inconclusive: 35.5 µM [activator, single point] | –
COC(=O)c1ccc(C2/C(=C(\O)c3ccc4c(c3)OCCO4)C(=O)C(=O)N2CCCN2CCOCC2)cc1 (stereo not drawn) | inconclusive: 17.8 µM [activator, single point] | –
C/C(Cn1nnc([N+](=O)[O-])n1)=N\NC(=O)c1ccc(C)cc1 | inconclusive: 11.2 µM [inhibitor, partial curve, poor fit] | –
CSc1ccccc1C(=O)C1CCCN(Cc2ccccn2)C1 (stereo not drawn) | – | inactive: -18.7% [at 46.1 µM]
Cc1ccccc1NC(NC(=O)c1cccs1)C(Cl)(Cl)Cl (stereo not drawn) | inconclusive: 14.1 µM [inhibitor, single point] | –
Cc1ccc(S(=O)(=O)N(CC(=O)NCc2cccnc2)C2CCCCC2)cc1 | inconclusive: 6.31 µM [inhibitor, partial curve, poor fit] | –
CCOc1cccc(/C=N/NC(=O)c2cc(-c3cccn3C)n[nH]2)c1O | inconclusive: 22.4 µM [inhibitor, partial curve, poor fit] | –
O=C(O)/C=C/C(=O)N(CC1CCCO1)C1CC(=O)N(c2c(Cl)cccc2Cl)C1=O (stereo not drawn) | inconclusive: 22.4 µM [inhibitor, single point] | –
Cn1c(NCC(O)CO)nc2c1c(=O)n(Cc1ccc(Cl)c(Cl)c1)c(=O)n2C (stereo not drawn) | inconclusive: 0.398 µM [inhibitor, partial curve, poor fit] | –
COc1ccc(C(CNC(=O)c2cccc(S(=O)(=O)Nc3ccc(F)cc3)c2)N2CCCC2)cc1 (stereo not drawn) | inconclusive: 35.5 µM [inhibitor, single point] | –
Cc1ccc2cc3c(N)c(C(=O)N4CCOCC4)sc3nc2c1 | – | inactive: -19.8%
Cc1cc(C)c2nc(NC(=O)CN3C(=O)NC4(CCCC4)C3=O)sc2c1 | inconclusive: 3.16 µM [inhibitor, partial curve, poor fit] | –
COc1cc(CN(C)Cc2ccccc2)cc(OC)c1O | inconclusive: 3.16 µM [inhibitor, partial curve, poor fit] | –
CCCCn1c(NC(=O)CC)c(C#N)c2nc3ccccc3nc21 | – | inactive: -0.713%
CN(C)c1ccc(N2C(=O)CC(c3ccccc3)CC2=O)cc1 | – | inactive: 14.9%
CC(C)OCCCNC(=O)c1c(N)n(/N=C/c2ccccn2)c2nc3ccccc3nc12 | inconclusive: 23.1 µM [inhibitor, partial curve, poor fit] | –
Nc1ccc(C(=O)c2cccs2)cc1 | – | inactive: 15.6%
Clc1ccc(CO[C@@H](Cn2ccnc2)c2ccc(Cl)cc2Cl)cc1 | – | inactive: -39.8%
CC(C)c1nc2ccc(NC(=O)C34CC5CC(CC(C5)C3)C4)cc2[nH]1 | inconclusive: 10.3 µM [activator, single point] | –
Cc1nn2c(-c3ccc(Cl)cc3)nnc2s1 | inconclusive: 20.6 µM [activator, single point] | –
N/C(=N\OC(=O)c1ccc2ccccc2c1)c1cccc([N+](=O)[O-])c1 | inconclusive: 5.8 µM [activator, full curve, poor fit] | –
CCOC(=O)N1CCc2c(sc3c2c(=O)n(-c2ccc(CC)cc2)c(=O)n3Cc2cc(C)ccc2C)C1 | – | inconclusive: 5.67% [activator] [at 46.1 µM]
